The supplement of paper PMC8728848
This is one part of the list.

What was measured:
Assay in all cases: glycan array binding signal (z-score within array); higher = stronger binding
Conditions in all cases: glycan notation: IUPAC condensed, linker removed
[1] = molecular target: Fuc(a1-2)Gal6S(b1-4)GlcNAc
In short: (§1)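 Glycan array data came from 3228 arrays in the Consortium for Functional Glycomics database, and only arrays with an available protein sequence were kept. Glycan names were put into IUPAC-condensed notation, and columns mapping to the same glycan were averaged. The binding signal is a within-array Z-score, averaged across arrays of one protein sequence run at different concentrations or buffers and across linkers. A negative Z-score can be read as non-binding.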

Fuc(a1-2)[Gal(a1-3)]Gal = molecular target: Fuc(a1-2)[Gal(a1-3)]Gal
In short: as §1

[2] = molecular target: Fuc(a1-2)[Gal(a1-3)]Gal(b1-3)GlcNAc
In short: as §1

[3] = molecular target: Fuc(a1-2)[Gal(a1-3)]Gal(b1-3)GlcNAc(b1-2)Man(a1-3)[Fuc(a1-2)[Gal(a1-3)]Gal(b1-3)GlcNAc(b1-2)Man(a1-6)]Man(b1-4)GlcNAc(b1-4)GlcNAc
In short: as §1

[4] = molecular target: Fuc(a1-2)[Gal(a1-3)]Gal(b1-4)Glc
In short: as §1

[5] = molecular target: Fuc(a1-2)[Gal(a1-3)]Gal(b1-4)GlcNAc
In short: as §1

[6] = molecular target: Fuc(a1-2)[Gal(a1-3)]Gal(b1-4)GlcNAc(b1-2)Man(a1-3)[Fuc(a1-2)[Gal(a1-3)]Gal(b1-4)GlcNAc(b1-2)Man(a1-6)]Man(b1-4)GlcNAc(b1-4)GlcNAc
In short: as §1

[7] = molecular target: Fuc(a1-2)[Gal(a1-3)]Gal(b1-4)[Fuc(a1-3)]GlcNAc
In short: as §1

[8] = molecular target: Fuc(a1-2)[Gal(a1-4)]Gal(b1-4)GlcNAc
In short: as §1

[9] = molecular target: Fuc(a1-2)[GalNAc(a1-3)]Gal
In short: as §1

[10] = molecular target: Fuc(a1-2)[GalNAc(a1-3)]Gal(b1-3)GalNAc(a1-3)[Fuc(a1-2)]Gal(b1-4)GlcNAc
In short: as §1

[11] = molecular target: Fuc(a1-2)[GalNAc(a1-3)]Gal(b1-3)GlcNAc
In short: as §1

[12] = molecular target: Fuc(a1-2)[GalNAc(a1-3)]Gal(b1-3)GlcNAc(b1-2)Man(a1-3)[Fuc(a1-2)[GalNAc(a1-3)]Gal(b1-3)GlcNAc(b1-2)Man(a1-6)]Man(b1-4)GlcNAc(b1-4)GlcNAc
In short: as §1

[13] = molecular target: Fuc(a1-2)[GalNAc(a1-3)]Gal(b1-4)Glc
In short: as §1

[14] = molecular target: Fuc(a1-2)[GalNAc(a1-3)]Gal(b1-4)GlcNAc
In short: as §1

[15] = molecular target: Fuc(a1-2)[GalNAc(a1-3)]Gal(b1-4)GlcNAc(b1-2)Man(a1-3)[Fuc(a1-2)[GalNAc(a1-3)]Gal(b1-4)GlcNAc(b1-2)Man(a1-6)]Man(b1-4)GlcNAc(b1-4)GlcNAc
In short: as §1

[16] = molecular target: Fuc(a1-2)[GalNAc(a1-3)]Gal(b1-4)GlcNAc(b1-2)Man(a1-3)[GalNAc(a1-3)[Fuc(a1-2)]Gal(b1-4)GlcNAc(b1-2)Man(a1-6)]Man(b1-4)GlcNAc(b1-4)GlcNAc
In short: as §1

[17] = molecular target: Fuc(a1-2)[GalNAc(a1-3)]Gal(b1-4)GlcNAc(b1-3)Gal(b1-4)GlcNAc
In short: as §1

[18] = molecular target: Fuc(a1-2)[GalNAc(a1-3)]Gal(b1-4)GlcNAc(b1-3)Gal(b1-4)GlcNAc(b1-3)Gal(b1-4)GlcNAc
In short: as §1

[19] = molecular target: Fuc(a1-2)[GalNAc(a1-3)]Gal(b1-4)[Fuc(a1-3)]GlcNAc
In short: as §1

[20] = molecular target: Fuc(a1-2)[GalNAc(a1-4)]Gal(b1-4)GlcNAc
In short: as §1

[21] = molecular target: Fuc(a1-2)[GalNAc(b1-3)]Gal
In short: as §1

Fuc(a1-3)GlcNAc = molecular target: Fuc(a1-3)GlcNAc
In short: as §1

[22] = molecular target: Fuc(a1-3)[Gal(b1-4)]Glc6S
In short: as §1

[23] = molecular target: Fuc(a1-3)[Gal(b1-4)]GlcNAc
In short: as §1

[24] = molecular target: Fuc(a1-3)[Gal(b1-4)]GlcNAc(b1-2)Man(a1-3)[Fuc(a1-3)[Gal(b1-4)]GlcNAc(b1-2)Man(a1-6)]Man(b1-4)GlcNAc(b1-4)GlcNAc
In short: as §1

[25] = molecular target: Fuc(a1-3)[Gal(b1-4)]GlcNAc(b1-2)Man(a1-6)[Gal(b1-4)GlcNAc(b1-2)Man(a1-3)]Man(b1-4)GlcNAc(b1-4)GlcNAc
In short: as §1

[26] = molecular target: Fuc(a1-3)[Gal(b1-4)]GlcNAc(b1-3)Gal(b1-3)[Fuc(a1-4)]GlcNAc
In short: as §1

[27] = molecular target: Fuc(a1-3)[Gal(b1-4)]GlcNAc(b1-3)GalNAc
In short: as §1

[28] = molecular target: Fuc(a1-3)[Gal(b1-4)]GlcNAc(b1-4)Gal(b1-4)[Fuc(a1-3)]GlcNAc
In short: as §1

[29] = molecular target: Fuc(a1-3)[Gal(b1-4)]GlcNAc(b1-4)Gal(b1-4)[Fuc(a1-3)]GlcNAc(b1-4)Gal(b1-4)[Fuc(a1-3)]GlcNAc
In short: as §1

[30] = molecular target: Fuc(a1-3)[Gal(b1-4)]GlcNAc(b1-6)[Gal(b1-3)GlcNAc(b1-3)]Gal(b1-4)Glc
In short: as §1

[31] = molecular target: Fuc(a1-3)[Gal(b1-4)]GlcNAc6S
In short: as §1

[32] = molecular target: Fuc(a1-3)[Gal3S(b1-4)]Glc6S
In short: as §1

[33] = molecular target: Fuc(a1-3)[Gal3S(b1-4)]GlcNAc
In short: as §1

[34] = molecular target: Fuc(a1-3)[Gal3S(b1-4)]GlcNAc6S
In short: as §1

[35] = molecular target: Fuc(a1-3)[GalNAc(b1-4)]GlcNAc
In short: as §1

Fuc(a1-4)GlcNAc = molecular target: Fuc(a1-4)GlcNAc
In short: as §1

Fuc(b1-3)GlcNAc = molecular target: Fuc(b1-3)GlcNAc
In short: as §1

Gal(a1-2)Gal = molecular target: Gal(a1-2)Gal
In short: as §1

Gal(a1-3)Gal = molecular target: Gal(a1-3)Gal
In short: as §1

Gal(a1-3)Gal(b1-3)GlcNAc = molecular target: Gal(a1-3)Gal(b1-3)GlcNAc
In short: as §1

[36] = molecular target: Gal(a1-3)Gal(b1-3)GlcNAc(b1-2)Man(a1-3)[Gal(a1-3)Gal(b1-3)GlcNAc(b1-2)Man(a1-6)]Man(b1-4)GlcNAc(b1-4)GlcNAc
In short: as §1

[37] = molecular target: Gal(a1-3)Gal(b1-3)[Fuc(a1-4)]GlcNAc(b1-2)Man(a1-3)[Gal(a1-3)Gal(b1-3)[Fuc(a1-4)]GlcNAc(b1-2)Man(a1-6)]Man(b1-4)GlcNAc(b1-4)GlcNAc
In short: as §1

Gal(a1-3)Gal(b1-4)Glc = molecular target: Gal(a1-3)Gal(b1-4)Glc
In short: as §1

B1: SBD (Rhizopus oryzae), P07683 (protein)
chain: ASIPSSASVQLDSYNYDGSTFSGKIYVKNIAYSKKVTVVYADGSDNWNNNGNIIAASFSGPISGSNYEYWTFSASVKGIKEFYIKYEVSGKTYYDNNNSANYQVS
glycan array binding signal (z-score) [1]: -0.28 | glycan array binding signal (z-score) (Fuc(a1-2)[Gal(a1-3)]Gal): 0.598 | glycan array binding signal (z-score) [2]: 0.167 | glycan array binding signal (z-score) [3]: 0.476 | glycan array binding signal (z-score) [4]: -0.385 | glycan array binding signal (z-score) [5]: -0.321 | glycan array binding signal (z-score) [6]: -0.055 | glycan array binding signal (z-score) [7]: 0.522 | glycan array binding signal (z-score) [8]: 0.276 | glycan array binding signal (z-score) [9]: 0.587 | glycan array binding signal (z-score) [10]: -1.02 | glycan array binding signal (z-score) [11]: -0.258 | glycan array binding signal (z-score) [12]: 0.06 | glycan array binding signal (z-score) [13]: -0.2 | glycan array binding signal (z-score) [14]: -0.384 | glycan array binding signal (z-score) [15]: -0.079 | glycan array binding signal (z-score) [16]: 0.417 | glycan array binding signal (z-score) [17]: 0.147 | glycan array binding signal (z-score) [18]: -0.03 | glycan array binding signal (z-score) [19]: 0.375 | glycan array binding signal (z-score) [20]: -0.226 | glycan array binding signal (z-score) [21]: -0.318 | glycan array binding signal (z-score) (Fuc(a1-3)GlcNAc): 0.165 | glycan array binding signal (z-score) [22]: 0.068 | glycan array binding signal (z-score) [23]: 0.132 | glycan array binding signal (z-score) [24]: -0.273 | glycan array binding signal (z-score) [25]: -0.263 | glycan array binding signal (z-score) [26]: -0.2 | glycan array binding signal (z-score) [27]: 1.73 | glycan array binding signal (z-score) [28]: 0.673 | glycan array binding signal (z-score) [29]: 0.197 | glycan array binding signal (z-score) [30]: -0.418 | glycan array binding signal (z-score) [31]: -0.323 | glycan array binding signal (z-score) [32]: 0.589 | glycan array binding signal (z-score) [33]: -0.076 | glycan array binding signal (z-score) [34]: 0.248 | glycan array binding signal (z-score) [35]: -0.229 | glycan array binding signal (z-score) (Fuc(a1-4)GlcNAc): -0.455 | glycan array binding signal (z-score) (Fuc(b1-3)GlcNAc): -0.152 | glycan array binding signal (z-score) (Gal(a1-2)Gal): -0.007 | glycan array binding signal (z-score) (Gal(a1-3)Gal): -0.697 | glycan array binding signal (z-score) (Gal(a1-3)Gal(b1-3)GlcNAc): 0.112 | glycan array binding signal (z-score) [36]: 0.791 | glycan array binding signal (z-score) [37]: 1.9 | glycan array binding signal (z-score) (Gal(a1-3)Gal(b1-4)Glc): -0.213
